Results: patent publication US8765741B2, “5,6-dihydro-1H-pyridin-2-one compounds” (Anadys Pharmaceuticals, Inc., priority 2007, dated 2014)

By UniProt entry, the sequences of proteins in these tests, tags left out. Residues count along the entry.
UniProt P26663, 2420-3010: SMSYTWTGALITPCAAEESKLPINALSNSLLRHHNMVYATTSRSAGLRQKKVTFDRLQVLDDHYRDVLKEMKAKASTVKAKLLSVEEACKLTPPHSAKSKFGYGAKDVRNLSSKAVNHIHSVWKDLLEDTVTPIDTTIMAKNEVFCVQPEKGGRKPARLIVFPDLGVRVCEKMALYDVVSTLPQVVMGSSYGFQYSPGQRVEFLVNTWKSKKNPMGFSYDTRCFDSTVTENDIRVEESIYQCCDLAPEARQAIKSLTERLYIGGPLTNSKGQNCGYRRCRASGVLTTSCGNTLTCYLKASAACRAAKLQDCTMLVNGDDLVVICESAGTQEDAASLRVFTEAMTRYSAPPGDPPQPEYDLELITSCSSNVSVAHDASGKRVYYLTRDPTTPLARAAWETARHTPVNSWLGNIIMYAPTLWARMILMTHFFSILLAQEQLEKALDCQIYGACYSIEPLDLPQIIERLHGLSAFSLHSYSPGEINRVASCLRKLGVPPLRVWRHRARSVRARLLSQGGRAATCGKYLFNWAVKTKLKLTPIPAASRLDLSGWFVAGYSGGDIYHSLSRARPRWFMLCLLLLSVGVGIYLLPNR

Target: NS5B polymerase (Hepatitis C virus genotype 1b, UniProt P26663)
Assay: biochemical
Description: Compounds were tested for HCV polymerase inhibition. Assays were performed in a 96-well streptavidin-coated FlashPlate using 20 nM enzyme, 0.5 μCi of [α-^33P]GTP, 0.6 μM GTP, and 250 nM 5′biotinylated oligo (rG13)/poly rC in 20 mM Tris-HCl, pH 7.5, 5 mM MgCl2, 5 mM dithiothreitol, 0.1 g/L bovine serum albumin, and 100 U/mL RNAse inhibitor. The reaction was stopped by aspiration after 75 min at 28° C. and the plate was washed several times. After washing and drying the plate, incorporated radioactivity was counted using a Microbeta scintillation counter. IC50 values were calculated relative to the uninhibited control and inhibition data were fitted to a 4-parameter IC50 equation.

## Cc1cc(CN2C(=O)C(C3=NS(=O)(=O)c4cc(NS(C)(=O)=O)ccc4N3)=C(O)[C@@H]3[C@H]4CC[C@H](C4)[C@@H]32)ccc1F [Example 15, N-{3-[(1R,2S,7R,8S)-3-(4-Fluoro-3-methyl-benzyl)-6-hydroxy-4-oxo-3-aza-tricyclo[6.2.1.0^2,7]undec-5-en-5-yl]-1,1-dioxo-1,4-dihydro-1λ^6-benzo[1,2,4]thiadiazin-7-yl}-methanesulfonamide]
  IC50: < 20 nM
